Results are given in words; binding and its absence hold for the method and conditions named. Binding seen in cells or lysates may run through a third protein. Some entries that bind do so weakly or less than the wild type.
Key:
[1] = biological target: NMDA receptor subunit GluN2A (NR2A-SEP) (UniProt Q00959); experiment: co-IP; transfected HeLa cells lysed in RIPA buffer; lysates incubated on ice overnight with anti-flag (0.1 ug) or anti-GFP (1 ug) antibody, Protein G-Agarose, washed with 1x RIPA buffer, western blot
[2] = biological target: NMDA receptor subunit GluN2B (NR2B-SEP) (UniProt Q00960); experiment: as above

By UniProt entry, the sequences of proteins in these tests, tags left out. Residues count along the entry.
UniProt Q00960, residues 27-1482: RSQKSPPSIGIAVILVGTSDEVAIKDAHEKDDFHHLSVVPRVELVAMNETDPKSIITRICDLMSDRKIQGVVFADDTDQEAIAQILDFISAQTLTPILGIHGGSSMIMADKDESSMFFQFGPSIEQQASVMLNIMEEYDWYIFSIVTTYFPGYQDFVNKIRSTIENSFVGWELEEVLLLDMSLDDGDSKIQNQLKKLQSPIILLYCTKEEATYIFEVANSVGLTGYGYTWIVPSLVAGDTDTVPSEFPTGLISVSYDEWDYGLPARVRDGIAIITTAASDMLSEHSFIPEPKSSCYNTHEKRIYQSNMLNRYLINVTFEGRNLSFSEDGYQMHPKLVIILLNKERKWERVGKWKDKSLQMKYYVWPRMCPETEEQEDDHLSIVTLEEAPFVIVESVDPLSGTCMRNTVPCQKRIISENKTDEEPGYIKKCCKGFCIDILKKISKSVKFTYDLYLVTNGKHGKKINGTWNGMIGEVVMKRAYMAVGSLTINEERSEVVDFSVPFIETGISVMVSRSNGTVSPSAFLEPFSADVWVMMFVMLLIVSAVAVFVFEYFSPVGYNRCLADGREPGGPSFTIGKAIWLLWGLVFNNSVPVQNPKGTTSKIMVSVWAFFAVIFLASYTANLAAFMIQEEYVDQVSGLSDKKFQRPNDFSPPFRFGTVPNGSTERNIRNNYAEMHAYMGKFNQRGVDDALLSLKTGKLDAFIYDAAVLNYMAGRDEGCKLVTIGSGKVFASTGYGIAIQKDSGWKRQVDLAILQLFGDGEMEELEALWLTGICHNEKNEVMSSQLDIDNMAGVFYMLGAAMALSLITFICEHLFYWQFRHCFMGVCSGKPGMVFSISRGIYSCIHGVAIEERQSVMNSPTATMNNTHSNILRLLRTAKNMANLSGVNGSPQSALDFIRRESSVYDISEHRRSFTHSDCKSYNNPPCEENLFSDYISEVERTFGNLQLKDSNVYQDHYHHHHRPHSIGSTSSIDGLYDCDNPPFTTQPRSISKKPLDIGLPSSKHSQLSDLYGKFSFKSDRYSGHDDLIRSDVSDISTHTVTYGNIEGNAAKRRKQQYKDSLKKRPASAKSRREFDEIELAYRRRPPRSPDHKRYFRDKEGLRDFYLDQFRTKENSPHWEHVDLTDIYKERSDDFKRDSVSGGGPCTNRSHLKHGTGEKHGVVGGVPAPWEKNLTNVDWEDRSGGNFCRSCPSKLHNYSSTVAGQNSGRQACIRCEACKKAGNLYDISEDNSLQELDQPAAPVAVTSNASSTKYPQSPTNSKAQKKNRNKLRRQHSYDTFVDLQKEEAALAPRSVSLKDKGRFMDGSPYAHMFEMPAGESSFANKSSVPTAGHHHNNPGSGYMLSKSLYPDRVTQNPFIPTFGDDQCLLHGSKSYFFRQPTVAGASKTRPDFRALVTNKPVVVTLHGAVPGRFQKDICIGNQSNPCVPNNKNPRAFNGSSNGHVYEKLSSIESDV

β-arrestin-2 (Arrb2-flag) (from UniProt P29067 1-410)
binding [1]: no binding | binding [2]: binds

— publication PMC5477285
